Source: publication PMC10743763
Results are given in words; binding and its absence hold for the method and conditions named. In cells and extracts the contact can be indirect. For part of these data: Binding calls can cover weak binding; strength is not graded here. Tags and fused reporters may be left off the sequences shown.

Key:
Experiment in all cases: pull-down; GST-tagged OFD1 fragments on glutathione beads incubated overnight at 4 °C with extracts of 293T cells transfected with PXN constructs (mCherry fusions); four washes; Western blot; only the target purified
[1] = target: T1, GST-OFD1 amino acid residues 145-1012 (human) (UniProt O75665)
T1 sequence: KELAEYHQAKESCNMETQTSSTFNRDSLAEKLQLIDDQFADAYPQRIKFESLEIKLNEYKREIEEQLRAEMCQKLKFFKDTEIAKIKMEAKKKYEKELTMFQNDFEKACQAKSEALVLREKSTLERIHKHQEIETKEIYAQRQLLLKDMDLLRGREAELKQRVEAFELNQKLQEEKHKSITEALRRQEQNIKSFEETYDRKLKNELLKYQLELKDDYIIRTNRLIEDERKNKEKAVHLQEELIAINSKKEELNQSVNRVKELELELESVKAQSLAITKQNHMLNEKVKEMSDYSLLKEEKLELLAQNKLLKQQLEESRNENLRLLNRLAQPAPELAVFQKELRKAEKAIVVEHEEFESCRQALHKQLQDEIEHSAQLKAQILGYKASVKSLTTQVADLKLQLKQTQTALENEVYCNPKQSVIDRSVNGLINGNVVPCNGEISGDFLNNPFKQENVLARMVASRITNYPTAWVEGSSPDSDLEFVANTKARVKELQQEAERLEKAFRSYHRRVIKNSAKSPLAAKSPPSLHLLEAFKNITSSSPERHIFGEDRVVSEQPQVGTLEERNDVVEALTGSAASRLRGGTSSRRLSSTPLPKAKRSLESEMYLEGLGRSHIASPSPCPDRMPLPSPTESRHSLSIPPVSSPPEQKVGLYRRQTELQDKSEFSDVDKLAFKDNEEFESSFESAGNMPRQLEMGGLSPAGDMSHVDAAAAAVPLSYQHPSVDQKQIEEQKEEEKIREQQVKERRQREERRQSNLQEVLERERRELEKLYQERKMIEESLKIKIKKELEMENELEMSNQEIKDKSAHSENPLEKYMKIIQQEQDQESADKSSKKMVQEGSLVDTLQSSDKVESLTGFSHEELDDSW

[2] = target: T2, GST-OFD1 amino acid residues 765-1012 (human) (UniProt O75665)
T2 sequence: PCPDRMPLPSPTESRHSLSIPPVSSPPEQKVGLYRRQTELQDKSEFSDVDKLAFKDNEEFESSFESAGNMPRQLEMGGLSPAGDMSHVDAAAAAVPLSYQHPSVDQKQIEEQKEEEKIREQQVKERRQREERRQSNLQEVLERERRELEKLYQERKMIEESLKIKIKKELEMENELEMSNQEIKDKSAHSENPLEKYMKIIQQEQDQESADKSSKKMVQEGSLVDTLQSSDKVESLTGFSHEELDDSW

[3] = target: T3, GST-OFD1 amino acid residues 365-1012 (human) (UniProt O75665)
T3 sequence: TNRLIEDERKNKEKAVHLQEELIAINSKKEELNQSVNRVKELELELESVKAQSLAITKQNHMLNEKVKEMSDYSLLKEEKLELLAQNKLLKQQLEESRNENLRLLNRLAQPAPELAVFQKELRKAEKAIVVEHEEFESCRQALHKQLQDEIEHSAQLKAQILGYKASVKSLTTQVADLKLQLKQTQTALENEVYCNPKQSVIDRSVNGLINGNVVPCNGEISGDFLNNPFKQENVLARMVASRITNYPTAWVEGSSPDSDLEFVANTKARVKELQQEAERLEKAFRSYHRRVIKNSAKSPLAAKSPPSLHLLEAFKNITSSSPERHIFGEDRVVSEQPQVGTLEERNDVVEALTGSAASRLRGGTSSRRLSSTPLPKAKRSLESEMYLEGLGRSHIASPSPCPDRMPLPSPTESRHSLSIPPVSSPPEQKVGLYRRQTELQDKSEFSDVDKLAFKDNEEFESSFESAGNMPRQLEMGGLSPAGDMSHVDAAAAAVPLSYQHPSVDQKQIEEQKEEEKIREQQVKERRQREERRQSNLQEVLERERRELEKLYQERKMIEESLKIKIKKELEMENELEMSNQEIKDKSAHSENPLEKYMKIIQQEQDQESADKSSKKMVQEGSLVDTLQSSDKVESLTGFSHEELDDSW

[4] = target: T4, GST-OFD1 3-601 construct (human) (UniProt O75665)
T4 sequence: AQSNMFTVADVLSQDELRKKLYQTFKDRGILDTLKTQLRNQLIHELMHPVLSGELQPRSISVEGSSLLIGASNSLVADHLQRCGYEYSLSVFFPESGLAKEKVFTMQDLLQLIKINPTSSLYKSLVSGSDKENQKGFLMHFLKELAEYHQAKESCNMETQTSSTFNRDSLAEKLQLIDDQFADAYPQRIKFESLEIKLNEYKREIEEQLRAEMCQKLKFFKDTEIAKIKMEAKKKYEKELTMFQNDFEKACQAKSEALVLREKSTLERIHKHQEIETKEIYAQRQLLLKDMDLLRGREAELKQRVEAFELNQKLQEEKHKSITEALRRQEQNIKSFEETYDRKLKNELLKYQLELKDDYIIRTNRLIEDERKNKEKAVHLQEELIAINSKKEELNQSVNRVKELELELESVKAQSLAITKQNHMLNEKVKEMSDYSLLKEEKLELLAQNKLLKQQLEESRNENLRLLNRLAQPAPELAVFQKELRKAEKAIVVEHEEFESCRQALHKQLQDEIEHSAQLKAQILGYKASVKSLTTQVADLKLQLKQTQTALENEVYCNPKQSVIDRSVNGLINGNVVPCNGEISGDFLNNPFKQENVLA

[5] = target: T5, GST-OFD1 amino acid residues 601-1012 (human) (UniProt O75665)
T5 sequence: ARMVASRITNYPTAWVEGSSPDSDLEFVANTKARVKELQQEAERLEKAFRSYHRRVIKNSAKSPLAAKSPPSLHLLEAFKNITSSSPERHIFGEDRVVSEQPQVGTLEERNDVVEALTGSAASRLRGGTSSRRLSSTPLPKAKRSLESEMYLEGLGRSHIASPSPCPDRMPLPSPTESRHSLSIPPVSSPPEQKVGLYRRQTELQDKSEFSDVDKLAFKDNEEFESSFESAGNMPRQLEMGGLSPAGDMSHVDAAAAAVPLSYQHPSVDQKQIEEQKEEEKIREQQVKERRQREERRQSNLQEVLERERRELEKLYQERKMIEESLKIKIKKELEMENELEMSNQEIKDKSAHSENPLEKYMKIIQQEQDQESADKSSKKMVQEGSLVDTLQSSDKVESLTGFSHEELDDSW

binding [1]	binding [2]	binding [3]	binding [4]	binding [5]	Substance
binds	binds	binds	no binding	binds	N-terminal domain (NTD) of paxillin containing the LD domains, fused with mCherry (domain or fragment)
no binding	no binding	no binding		no binding	C-terminal domain (CTD) of paxillin containing the LIM domains, fused with mCherry (domain or fragment)
